# Experimental data published in PubChem BioAssay AID540303 (National Center for Advancing Translational Sciences (NCATS), 2011).
# Screen size: about 330,000 compounds; about 1,000 (0.3%) were called active. Inconclusive means that the source gave no clear call. Such entries were picked first, then a sample of the others. Calls follow the shape of the dose curve; as a rule, active = well fitted inhibition curve with a large enough effect; inconclusive = small, poorly fitted or top-dose-only effect; inactive = no such curve, though single readings can be large or run the other way; tested in mouse RAW 264.7 cells. Where the call is inconclusive, the potency comes from a doubtful curve fit.
# Test: qHTS for Inhibitors of Cell Surface uPA Generation; also: nearly all actives have a fitted effect of over 55% in size
# Conditions: cell surface uPA generation assay; series mostly up to 38.3 µM; activity change, negative = inhibition: at the top concentration
# Outline: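 Intracellular ATP by ATPlite luminescence serves as read-out: inhibited cell-surface uPA generation prevents LF translocation, preserving ATP. Murine RAW 264.7 macrophages were treated 24 h at 37 C with five-fold serial dilutions, up to 38.3 uM final.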
# % is scaled to controls: 0 for no effect and ±100 for the full control effect; potency is read from the fitted curve at half-maximal effect.
Compound,Potency,"activity change, negative = inhibition"
CCOC(=O)/C=C/C(=O)OCC(=O)Nc1ccc(OC)c(Cl)c1,"inconclusive: 10 µM [inhibitor, single point]",
CN(C)C(=O)CCc1ccc2c3c([nH]c2c1)[C@]1(CCC2CCCC2)[C@@H](C(=O)N2CCOCC2)C[C@H](CC(=O)NCc2cccc(C(F)(F)F)c2)C(=O)N1CC3,"inconclusive: 10 µM [inhibitor, single point]",
CC1CCCCC1NC(=O)c1cc(S(=O)(=O)N2CCCCC2)ccc1N1CCOCC1 (centres undefined),"inconclusive: 2.82 µM [inhibitor, partial curve, poor fit]",
Cc1cccc(CCNC(=O)CN(C)S(=O)(=O)c2ccc3c(c2)c(=O)n(C)c(=O)n3C)c1,"inconclusive: 10 µM [inhibitor, single point]",
O=C(COC(=O)C(CO)NS(=O)(=O)c1ccc(Br)cc1)Nc1ccc2c(c1)OCCO2 (centres undefined),"inconclusive: 1 µM [inhibitor, partial curve, poor fit]",
CC(=O)Nc1ccc(S(=O)(=O)N(C)CC(=O)OCC(=O)Nc2cc(C)on2)cc1,"inconclusive: 3.16 µM [inhibitor, partial curve, poor fit]",
C/C(=N/O)c1c(O)c(C)c(-c2ccccc2)n(-c2ccccc2)c1=O,,inactive: 0.85%
Cn1c2ccccc2c2cc(/C=N/NC(=O)c3ccccc3F)ccc21,"inconclusive: 10 µM [inhibitor, partial curve, poor fit]",
COc1cccc(/C=C2\SC(=S)N(CCCC(=O)N(CCO)c3ccccc3)C2=O)c1,"inconclusive: 10 µM [inhibitor, single point]",
Cc1ccc(S(=O)(=O)NCCc2ccncc2)cc1[N+](=O)[O-],,inactive: -1.02%
Cc1cc(C(=O)NC2CCCc3c2cnn3-c2ccc(C)c(C)c2)no1 (centres undefined),"inconclusive: 3.16 µM [inhibitor, partial curve, poor fit]",
Cc1ccc(C(=O)NC(=C(Cl)Cl)S(=O)(=O)c2ccccc2)cc1,"inconclusive: 10 µM [inhibitor, partial curve, poor fit]",
Cc1ccc(NC(=O)c2ncn(CC(=O)NCc3nc4ccccc4[nH]3)n2)cc1C,"inconclusive: 11.2 µM [inhibitor, partial curve, poor fit]",
O=C(c1ccc(Cl)c(Cl)c1)N1CCC(=O)N(C(COCc2cccc(Cl)c2)Cc2ccccc2)CC1 (centres undefined),"inconclusive: 11.2 µM [inhibitor, single point]",
Cc1oc2cc3oc(=O)c(CCC(=O)NCCC(=O)O)c(C)c3cc2c1C,"inconclusive: 1.58 µM [inhibitor, partial curve, poor fit]",
CCOc1ccc(Cl)cc1CNc1nnnn1C,"inconclusive: 2.51 µM [inhibitor, partial curve, poor fit]",
COCCn1c(CN2CCN(c3cccc(Cl)c3)CC2)nc2c1c(=O)n(C)c(=O)n2C,"inconclusive: 10 µM [inhibitor, single point]",
COc1ccc2c3n([n+]([O-])c2c1)CCN=C3c1ccc(C)cc1,,inactive: -18.8%
CC(=O)Nc1ccc(N/C=C/C(=O)c2ccco2)cc1,,inactive: -4.12%
CCN(C(=O)c1cc2c(=O)n3ccccc3nc2s1)C1CCCCC1,,inactive: -3.85%

# Reprinted at random: two entries already listed, in no set order.
Compound,Potency,"activity change, negative = inhibition"
Cc1oc2cc3oc(=O)c(CCC(=O)NCCC(=O)O)c(C)c3cc2c1C,"inconclusive: 1.58 µM [inhibitor, partial curve, poor fit]",
Cc1cccc(CCNC(=O)CN(C)S(=O)(=O)c2ccc3c(c2)c(=O)n(C)c(=O)n3C)c1,"inconclusive: 10 µM [inhibitor, single point]",

# (cont.)

Compound,Potency,"activity change, negative = inhibition"
Cc1cccc(OCc2nc(C#N)c(N3CC(C)CC(C)C3)o2)c1 (centres undefined),,inactive: 11.3%
COc1ccc(/C=C/C(=O)NC(=S)Nc2ccc(N3CCN(C(C)=O)CC3)cc2)cc1,"inconclusive: 2.51 µM [inhibitor, full curve]",
N#C/C(=C/c1ccc(N2CCCCC2)o1)C(=O)Nc1ccc2ccccc2c1,"inconclusive: 12.6 µM [inhibitor, single point]",
CSCCC(NS(=O)(=O)c1cccc(C(F)(F)F)c1)C(=O)N(C)CCOc1ccc(Cl)cc1 (centres undefined),"inconclusive: 31.6 µM [inhibitor, single point]",
O=C(CCn1cnc2ccccc21)N/N=C/c1ccccc1O,"inconclusive: 10 µM [inhibitor, single point]",
COc1ccc(-c2nnc(Sc3nc4ccccc4o3)c3ccccc23)cc1,"inconclusive: 7.94 µM [inhibitor, single point]",
OC(CN1CCC(Cc2ccccc2)CC1)c1ccccc1 (centres undefined),"inconclusive: 2.51 µM [inhibitor, partial curve, poor fit]",
COc1ccc2[nH]c3c(c2c1)CCN1C(=O)C(CC(=O)NC/C=C(\C)CCC=C(C)C)C[C@H](C(=O)N(C(C)C)C(C)C)[C@@]31C (some centres undefined),"inconclusive: 28.2 µM [inhibitor, single point]",
CC(C)(C)NC(=O)CSc1nc2ccc(Nc3nc(N4CCOCC4)nc(N4CCOCC4)n3)cc2s1,"inconclusive: 12.6 µM [inhibitor, single point]",
O=C(OCC(=O)N1CCN(c2ccccc2)CC1)c1ccc([N+](=O)[O-])s1,"inconclusive: 7.08 µM [inhibitor, partial curve, poor fit]",
CCOc1ccc(NC(=O)Nc2ccon2)cc1,"inconclusive: 22.4 µM [inhibitor, partial curve, poor fit]",
Cn1c(=O)c2c(nc(CN3CCc4ccccc4C3)n2Cc2cccc(Cl)c2)n(C)c1=O,active: 7.94 µM,
O=C1CC(N(O)c2ccccc2)C(=O)N1c1ccc(Cl)c(Cl)c1 (centres undefined),"inconclusive: 1 µM [inhibitor, full curve, poor fit]",
N#Cc1c(NC(=O)c2cc(C3CC3)on2)sc2c1CCC2,"inconclusive: 3.98 µM [inhibitor, partial curve, poor fit]",
O=C(c1ccc2c(c1)C(=O)N(CCCO)C2=O)c1ccc2c(c1)C(=O)N(CCCO)C2=O,,inactive: -0.0878%
O=C(NCCN1CCN(c2ccccc2F)CC1)c1ccc2nc3ccccc3c(=O)n2c1,,inactive: 5.87%
Cc1cc(C)c(S(=O)(=O)N2CCCCC2CCNC(=O)C(=O)NC2CC2)c(C)c1 (centres undefined),"inconclusive: 3.16 µM [inhibitor, partial curve, poor fit]",
CCOc1ccccc1C(=O)Nc1ccc(S(=O)(=O)N2CCN(C)CC2)cc1,,inactive: 13.2%
Cn1c(=O)n(C)c2cc(NC(=O)c3ccc(F)cc3)ccc21,"inconclusive: 1.58 µM [inhibitor, full curve, poor fit]",
